# Melanoma cell counts after drug treatment

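Human melanoma cell lines in 1,536-well plates were treated with two drugs together for 72 h, then fixed, stained and imaged. Values are the number of DAPI-stained nuclei as a percentage of the DMSO control: 100 is no effect, lower means fewer cells. Concentrations were fixed for each drug; these are the lower of two levels, a fifth of the higher. No replicate spread is given; individual values may be noisy.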 Only some of the drugs and lines screened are listed, without regard to their results.

First drug in all entries: AS-252424, 1 µM, O=C1NC(=O)/C(=C/c2ccc(-c3ccc(F)cc3O)o2)S1

Second drug,G-361,C32,LB2518-MEL,COLO 792,IPC-298
Cc1nc(Nc2ncc(C(=O)Nc3c(C)cccc3Cl)s2)cc(N2CCN(CCO)CC2)n1 at 0.004 µM,79.1,86.8,84.3,70.9,94.1
C#Cc1cccc(Nc2ncnc3cc(OCCOC)c(OCCOC)cc23)c1 at 0.8 µM,85.1,102,101,81.4,92.3
O=C(Nc1cccc(Cl)c1)Nc1ncc(CCNc2ncnc3ccsc23)s1 at 0.0008 µM,98.5,95.9,81.9,99.1,98.1
COc1cc([C@@H]2c3cc4c(cc3[C@@H](O[C@@H]3O[C@@H]5CO[C@@H](C)O[C@H]5[C@H](O)[C@H]3O)[C@H]3COC(=O)[C@H]23)OCO4)cc(OC)c1O at 0.02 µM,114,94.4,93.8,106,103
Nc1ncn([C@H]2C[C@H](O)[C@@H](CO)O2)c(=O)n1 at 0.1 µM,85.4,98.4,88.5,83.8,65.3
C[C@]1(O)C[C@@H](c2nc(-c3ccc4ccc(-c5ccccc5)nc4c3)c3c(N)nccn32)C1 at 0.4 µM,96.4,105,94.3,97.8,91.5
CC(=O)c1c(C)c2cnc(Nc3ccc(N4CCNCC4)cn3)nc2n(C2CCCC2)c1=O at 0.04 µM,67.1,86.2,79.6,60.3,86.9
C[C@]1(c2nc3c(C(N)=O)cccc3[nH]2)CCCN1 at 1.4 µM,91.4,93.1,86.0,97.2,98.0
Cc1ccc(NC(=O)c2cccc(N(C)C)c2)cc1NC(=O)c1ccc(O)cc1 at 2 µM,97.9,88.1,95.8,108,87.8
Nc1cccc2c1CN(C1CCC(=O)NC1=O)C2=O (stereo not drawn) at 1 µM,96.0,109,110,95.3,95.4
C[C@@H]1CCN(C(=O)CC#N)C[C@@H]1N(C)c1ncnc2[nH]ccc12 at 1 µM,95.2,95.8,104,106,104
CC(C)C[C@H](NC(=O)[C@H](Cc1ccccc1)NC(=O)c1cnccn1)B(O)O at 0.001 µM,5.3,80.5,30.2,100,69.2
O=C(Nc1ccccc1)c1cc([N+](=O)[O-])ccc1Cl at 2 µM,101,101,87.3,108,109
CN(NC(=O)CC(=O)NN(C)C(=S)c1ccccc1)C(=S)c1ccccc1 at 0.006 µM,91.1,76.7,83.5,101,97.2
Cn1cncc1[C@@](N)(c1ccc(Cl)cc1)c1ccc2c(c1)c(-c1cccc(Cl)c1)cc(=O)n2C at 0.01 µM,94.2,98.2,81.2,95.0,102
CC(C)(C)c1cnc(CSc2cnc(NC(=O)C3CCNCC3)s2)o1 at 0.01 µM,102,92.6,94.7,108,103
Nc1nc(F)nc2c1ncn2[C@@H]1O[C@H](CO)[C@@H](O)[C@@H]1O at 0.2 µM,104,96.5,100,86.1,98.4
NC(=O)Nc1cc(-c2cccc(F)c2)sc1C(=O)N[C@H]1CCCNC1 at 0.02 µM,99.8,72.6,141,110,112
CO[C@@H]1[C@H](N(C)C(=O)c2ccccc2)C[C@H]2O[C@]1(C)n1c3ccccc3c3c4c(c5c6ccccc6n2c5c31)C(=O)NC4 at 0.08 µM,97.8,84.6,94.3,96.6,86.5
COc1cc(Nc2ncc(F)c(Nc3ccc4c(n3)NC(=O)C(C)(C)O4)n2)cc(OC)c1OC at 0.4 µM,90.7,94.2,85.5,54.6,79.2
COCC[n+]1c2c(n(Cc3cnccn3)c1C)C(=O)c1ccccc1C2=O at 0.0004 µM,111,115,96.5,93.2,102
CCc1ccc(CCOc2ccc(CC3SC(=O)NC3=O)cc2)nc1 (stereo not drawn) at 2 µM,86.9,103,98.9,94.5,99.8
OCCn1cc(-c2cnc3nnn(Cc4ccc5ncccc5c4)c3n2)cn1 at 1 µM,109,88.2,92.9,97.2,106
Cc1cc(SCc2sc(-c3ccc(C(F)(F)F)c(F)c3)nc2C)ccc1OCC(=O)O at 2 µM,94.8,91.1,92.2,103,90.7
COc1cc2c(Oc3ccc4[nH]c(C)cc4c3F)ncnc2cc1OCCCN1CCCC1 at 0.4 µM,98.8,78.7,89.5,99.1,96.8
Cn1nnc2c(C(N)=O)ncn2c1=O at 2 µM,98.6,107,92.9,106,89.3
Cn1c(=O)n(-c2ccc(C(C)(C)C#N)cc2)c2c3cc(-c4cnc5ccccc5c4)ccc3ncc21 at 0.004 µM,96.8,105,89.6,97.5,97.2
Cc1cc(N2CCOCC2)cc2[nH]c(-c3c(NC[C@@H](O)c4cccc(Cl)c4)cc[nH]c3=O)nc12 at 0.2 µM,79.2,94.0,105,92.0,97.9
CCN(CC)CCNC(=O)c1c(C)[nH]c(/C=C2\C(=O)Nc3ccc(F)cc32)c1C at 0.4 µM,93.2,82.9,87.1,95.0,91.3
O=C(Oc1ccc([N+](=O)[O-])cc1)N1CCC(C(O)(c2ccc3c(c2)OCO3)c2ccc3c(c2)OCO3)CC1 at 1 µM,93.8,109,103,100,97.5
Cc1cc(Nc2cc(N3CCN(C)CC3)nc(/C=C/c3ccccc3)n2)n[nH]1 at 0.04 µM,108,88.6,97.6,97.4,104

Once more, the final 3:

{"second drug": "CCN(CC)CCNC(=O)c1c(C)[nH]c(/C=C2\\C(=O)Nc3ccc(F)cc32)c1C at 0.4 µM", "G-361": 93.2, "C32": 82.9, "LB2518-MEL": 87.1, "COLO 792": 95.0, "IPC-298": 91.3}
{"second drug": "O=C(Oc1ccc([N+](=O)[O-])cc1)N1CCC(C(O)(c2ccc3c(c2)OCO3)c2ccc3c(c2)OCO3)CC1 at 1 µM", "G-361": 93.8, "C32": 109, "LB2518-MEL": 103, "COLO 792": 100, "IPC-298": 97.5}
{"second drug": "Cc1cc(Nc2cc(N3CCN(C)CC3)nc(/C=C/c3ccccc3)n2)n[nH]1 at 0.04 µM", "G-361": 108, "C32": 88.6, "LB2518-MEL": 97.6, "COLO 792": 97.4, "IPC-298": 104}

Source: doi:10.1371/journal.pone.0140310, primary screening data, rounded.